Reference: PubChem BioAssay AID493014 (National Center for Advancing Translational Sciences (NCATS), 2011)
Some of the results follow. Shown are side measurements of this screen, not its main read-out; they come without a call. The list favours compounds with an active or inconclusive main result. Words in brackets tell the shape of the fitted curve; partial curves, single points and poor fits give uncertain potencies.

Assay: qHTS Assay to Find Inhibitors of Chronic Active B-Cell Receptor Signaling
Conditions: ABC-DLBCL IkBa-CBG/CBR reporter, luminescence ratio (green luciferase fused to IkBa over red control in TMD8 lymphoma cells), 4 h
Summary of the method: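 TMD8 human ABC-DLBCL cells with doxycycline-inducible IκBα–green luciferase fusion and unfused red luciferase, in 0.5% FBS medium; compounds up to 46 uM, 4 h at 37C. Green/red luminescence ratio, filter-overlap corrected, fitted to concentration-response curves.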

[1] = measured here: CBR red luminescence, cell number
[2] = measured here: IkBa-CBG green luminescence

| Structure (SMILES) | AC50 [1] | AC50 [2] |
| --- | --- | --- |
| C=C[C@]1(C)C=C2CC[C@H]3[C@@](C)(CCC[C@@]3(C)C(=O)O)[C@@H]2CC1 | 16.4 µM [rising, single point] | – |
| Cc1csc(=O)n1CC(=O)OCC(=O)Nc1ccccc1C(C)C | 29.1 µM [rising, single point] | – |
| Cc1ccc(/C=N/NC(=O)c2ccc3nc[nH]c3c2)o1 | 14.1 µM [falling, single point] | – |
| O=C(NCC1CCCC(CNC(=O)N2CCc3ccccc32)C1)N1CCc2ccccc21 (stereo not drawn) | 4.11 µM [falling, single point] | – |
| O=C(CN1C(=O)S/C(=C/c2cccs2)C1=O)N1CCCC1 | 14.6 µM [rising, single point] | – |
| Cc1oc(S(=O)(=O)N(C)C)cc1C(=O)Nc1ccc(F)cc1 | 11.2 µM [falling, single point] | – |
| Cc1cc(C(C)(C)C)ccc1OCCOCCN1CCCC1 | 29.1 µM [falling, single point] | – |
| O=C(NC1CCCCC1)C(c1ccc2ncccc2c1)N(Cc1cccs1)C(=O)c1cccs1 (stereo not drawn) | 2.24 µM [falling, full curve] | 14.1 µM [rising, partial curve, poor fit] |
| O=C(OC1CCc2ccccc2C1=O)c1ccccc1O (stereo not drawn) | 4.11 µM [rising, partial curve, poor fit] | – |
| Cc1ccc(CNC(=O)CSCC(=O)O)cc1 | 20.6 µM [rising, single point] | – |
| OC[C@@H]1[C@@H](c2ccc(Cl)cc2)C(c2cccc(Cl)c2)=NN1c1ccccc1 | 29.1 µM [falling, single point] | – |
| Cc1ccc(Oc2ncccc2NC(=O)CC2(CC(=O)O)CCCC2)c2c1CCC2 | 6.31 µM [rising, single point] | – |
| O=C(COC(=O)c1ccccc1NC(=O)c1ccco1)Nc1ncc(Cl)cc1Cl | 29.1 µM [falling, single point] | – |
| COc1ccc(/C=N/Nc2nnc(-c3ncc[nH]3)c3ccccc23)cc1 | 35.5 µM [rising, single point] | – |
| COc1cccc2cc(-c3cc(=O)oc4ccc(OCC(C)=O)cc34)oc12 | 1.58 µM [falling, partial curve, poor fit] | – |
| CCOc1ccc(CN(C)C(=O)c2ccc(NS(=O)(=O)c3ccc4[nH]c(=O)[nH]c4c3)cc2)cc1 | 1.64 µM [rising, full curve, poor fit] | – |
| COc1ccc(/C=C/C(=O)NCCCN2CCOCC2)cc1 | 5.62 µM [falling, single point] | 5.62 µM [rising, single point] |
| N#CC(C#N)=C(N)CSc1cccc[n+]1[O-] | 1.41 µM [falling, full curve, poor fit] | 0.631 µM [falling, partial curve, poor fit] |
| O=[N+]([O-])c1ccc(N=Cc2sc3ccccc3c2O)cc1 | 8.2 µM [falling, partial curve] | – |
| O=C1C(c2ccncc2)N(CCC2=CCCCC2)C(=O)CN1C1CCCCC1 (stereo not drawn) | 0.501 µM [falling, full curve, poor fit] | – |
| CCOc1ccc(NC(=O)COC(=O)c2cc(=O)c3ccccc3o2)cc1 | 14.6 µM [falling, partial curve, poor fit] | – |

Structures from the list above that contain an aryl methoxy group (3):

| Structure (SMILES) | AC50 [1] | AC50 [2] |
| --- | --- | --- |
| COc1ccc(/C=N/Nc2nnc(-c3ncc[nH]3)c3ccccc23)cc1 | 35.5 µM [rising, single point] | – |
| COc1cccc2cc(-c3cc(=O)oc4ccc(OCC(C)=O)cc34)oc12 | 1.58 µM [falling, partial curve, poor fit] | – |
| COc1ccc(/C=C/C(=O)NCCCN2CCOCC2)cc1 | 5.62 µM [falling, single point] | 5.62 µM [rising, single point] |

(more compounds)

| Structure (SMILES) | AC50 [1] | AC50 [2] |
| --- | --- | --- |
| COc1cc(C2SCC(=O)N2Cc2ccccc2)cc(OC)c1OC (stereo not drawn) | 0.112 µM [rising, full curve, poor fit] | – |
| Cc1ccc(OCC(=O)N(Cc2ccco2)C2CCS(=O)(=O)C2)cc1C (stereo not drawn) | 35.5 µM [falling, single point] | – |
| O=C(CSCC(=O)Nc1cccc2ccccc12)Nc1cccc2ccccc12 | 7.08 µM [falling, partial curve] | – |
| Cc1ccc(/C=N/NC(=O)c2c[nH]c3ccccc23)s1 | 7.08 µM [falling, partial curve] | – |
| CCS(=O)(=O)CCSc1nc2ccccc2o1 | 6.51 µM [rising, single point] | – |
| COc1ccc(/C=N/Nc2nnc(-c3ccccc3)c(=O)[nH]2)cc1 | 10.3 µM [falling, partial curve, poor fit] | – |
| O=C1N[C@H](Cc2ccccc2)COC(=O)[C@H](Cc2ccc(F)cc2)CC/C=C/C[C@@H]1CC(=O)N(CCO)Cc1ccccc1 | 11.6 µM [falling, single point] | – |
| O=C(CSc1nc(Nc2ccccc2)nc(N2CCOCC2)n1)Nc1ccc2c(c1)OCCO2 | 35.5 µM [falling, single point] | – |
| Cc1cc(C)nc(N/N=C/c2cccc3ccccc23)n1 | 29.1 µM [falling, single point] | – |
| COc1cc(/C=C/c2noc(-c3ccccc3O)n2)ccc1OC(C)=O | 11.2 µM [falling, partial curve] | – |
| Cc1ccc(C(=O)C[n+]2cc(-c3ccccc3)n3c2CCCCC3)cc1 | 23.1 µM [falling, single point] | – |
| N#Cc1ccccc1COC(=O)CCN=C1NS(=O)(=O)c2ccccc21 | 18.4 µM [rising, partial curve, poor fit] | – |
| Cc1ccc(/C=N/Nc2ccc(Cl)c(C(=O)O)c2)s1 | 0.082 µM [falling, full curve] | – |
| COc1cc(N2C(=O)C=CC2=O)c(OC)cc1Cl | 17.8 µM [falling, partial curve] | – |
| COc1ccc2nc(SCC(=O)N3CCN(c4ccc(F)cc4)CC3)c(C#N)cc2c1 | 16.4 µM [falling, partial curve] | – |
| CCOC(=O)C1=C(CC)Nc2ccccc2N=C1NC(=O)c1ccc(C)c(S(=O)(=O)N2CCOCC2)c1 | 1.84 µM [rising, partial curve, poor fit] | – |
| O=S(=O)(c1ccc(OC(F)(F)F)cc1)N1CCC(O)(c2cccc(C(F)(F)F)c2)CC1 | 11.2 µM [falling, partial curve] | – |
| NNC(=O)c1[nH]c2ccc([N+](=O)[O-])cc2c1-c1ccccc1 | 5.62 µM [rising, full curve] | 4.47 µM [falling, full curve] |
| CCOC(=O)N1CCN(C(=O)CSCC(=O)Nc2nc(-c3cccs3)cs2)CC1 | 9.2 µM [falling, partial curve, poor fit] | – |
| O=C(c1ccc(Cl)cc1)N1N=CCC1(O)c1ccc(Cl)cc1 (stereo not drawn) | 12.6 µM [falling, partial curve] | – |
| O=[N+]([O-])c1ccc(/C=C/c2ccc3cccc([N+](=O)[O-])c3n2)cc1 | 2.31 µM [rising, full curve] | – |

| Structure (SMILES) | AC50 [1] | AC50 [2] |
| --- | --- | --- |
| O=c1nc(/C=C/c2cc([N+](=O)[O-])ccc2Cl)cc(C(F)(F)F)[nH]1 | 0.259 µM [falling, full curve, poor fit] | – |
| CCOc1ccc(NC(=O)CSc2n[nH]c(N)n2)c([N+](=O)[O-])c1 | 18.4 µM [rising, partial curve, poor fit] | – |
| CC(=O)c1c(-c2ccccc2)[nH]c2ccccc12 | 20 µM [falling, partial curve, poor fit] | – |
| Cc1ccc(/C=C2/C(=O)N=C(N)N2C)s1 | 10.3 µM [rising, partial curve, poor fit] | – |
| Fc1ccc(CN2CCN(C(=S)NCCc3ccccc3)CC2)c(Cl)c1 | 35.5 µM [falling, single point] | – |
| COc1ccc(C(=O)Nc2cccc(NC(=O)c3cccs3)c2)cc1 | 2.82 µM [falling, partial curve] | – |
| Nc1nc(SCC(=O)N2CCc3ccccc3C2)[nH]c(=O)c1-c1ccccc1 | 1.84 µM [falling, full curve, poor fit] | – |
| Cc1occc1C(=O)OCC(=O)Nc1ccc(F)cc1 | 14.1 µM [falling, partial curve] | – |
| CCOC(=O)c1c(C)n(C)c2ccc(OC)c(NC(=O)CN3CCN(C4CCCCC4)CC3)c12 | 4.11 µM [rising, partial curve] | – |
| Cc1c(NC(=O)c2ccc3c(c2)OCO3)cccc1-c1nc2ccccc2o1 | 6.31 µM [falling, full curve] | – |
| CCCCCCCSc1nc(N)cc(=O)[nH]1 | 7.31 µM [rising, partial curve, poor fit] | – |
| Cc1ccc(C(=O)N2CCCC(c3ccc(Cl)cc3)=N2)cc1 | 1.41 µM [falling, full curve] | – |
| O=C(CSc1nc2ncc(Cl)cc2[nH]1)c1c[nH]c2ccccc12 | 35.5 µM [falling, single point] | 35.5 µM [rising, partial curve, poor fit] |
| Cc1ccc(S(=O)(=O)c2nc(S(=O)(=O)c3ccccc3)sc2N2CCN(CCO)CC2)cc1 | 28.2 µM [falling, single point] | – |
| CC(=O)Cc1c(C(=O)O)c(C)nn1-c1ccccc1 | 15.8 µM [rising, single point] | – |
| O=C(CSCc1ccc([N+](=O)[O-])cc1)Nc1ccc(S(=O)(=O)N2CCCCCC2)cc1 | 11.6 µM [falling, partial curve, poor fit] | – |
| CN(C(=O)CSc1nncc2ccccc12)c1ccccc1 | 16.4 µM [falling, single point] | – |
| CN=C1C=C/C(=N/N=c2\ccn(O)cc2C)C=C1C | 22.4 µM [rising, partial curve] | – |
| C=CCNC(=S)NNC(=O)C(CCCC)CC(C)(C)O (stereo not drawn) | 32.6 µM [falling, single point] | 29.1 µM [falling, single point] |
| O=C(NCc1ccco1)c1ccc2c(c1)N(Cc1ccccc1)CCS2 | 35.5 µM [falling, single point] | – |
